# Data published in PubChem BioAssay AID248 (DTP/NCI, 2004).
# The list does not hold the whole screen: it is rich in T/C values a quarter to a half above the control, in often repeated tests (any T/C) and in doses without a T/C. Other doses and runs of a compound stand elsewhere. T/C is the treated group as % of the vehicle group. Where survival is the endpoint, the PubChem record calls one and a half times the control and up active, and a quarter to a half above the control has no call in these data; cut-offs in other NCI protocols can differ. Schedule codes are those of the source, read here as Q, the interval in days (D) or hours (H), X, the number of doses. Some entries were tested several times; the values are given in rising order. Some schedule codes hold Z or #, which are not explained here. Some T/C values are followed by the survivors on the day toxicity was checked, most often the fifth; where none is given, no animal had died by that day.
# Test system: L1210 leukemia ip in BDF1 mice, survival T/C
# Assay: NCI In Vivo Anticancer Drug Screen. Data for tumor model L1210 Leukemia (intraperitoneal) in B6D2F1 (BDF1) mice
# Conditions: T/C endpoint: mean survival time, higher T/C = longer survival
structure (smiles),measurement,setting,value
COC12C(COC(N)=O)C3=C(C(=O)C(C)=C(N)C3=O)N1CC1C2N1C (stereo unspecified),T/C,"dose: 2.0 mg/kg/injection, schedule: Q01DX009 (ip), vehicle: saline",139 % of control
same,T/C,"dose: 3.0 mg/kg/injection, schedule: Q01DX009 (ip), vehicle: saline",128 % of control
same,T/C,"dose: 3.0 mg/kg/injection, schedule: Q01DX015 (ip), vehicle: carboxymethylcellulose (CMC)",129 % of control
same,T/C,"dose: 3.3 mg/kg/injection, schedule: Q01DX007 (ip), vehicle: carboxymethylcellulose (CMC)",129 % of control
same,T/C,"dose: 3.5 mg/kg/injection, schedule: Q01DX015 (ip), vehicle: saline, evaluated on day 46",126 % of control
same,T/C,"dose: 3.5 mg/kg/injection, schedule: Q01DX015 (ip), vehicle: saline, run until all animals had died",129 % of control
same,T/C,"dose: 4.0 mg/kg/injection, schedule: Q01DX009 (ip), vehicle: Klucel (hydroxypropylcellulose) (HPC)",129 % of control
same,T/C,"dose: 4.0 mg/kg/injection, schedule: Q01DX009 (ip), vehicle: saline, evaluated on day 39",143 % of control
same,T/C,"dose: 4.0 mg/kg/injection, schedule: Q01DX009 (ip), vehicle: saline, evaluated on day 40",144 % of control
same,T/C,"dose: 4.0 mg/kg/injection, schedule: Q01DX009 (sc), vehicle: saline",125 % of control
same,T/C,"dose: 4.0 mg/kg/injection, schedule: Q01DX015 (ip), vehicle: carboxymethylcellulose (CMC)",131 % of control
same,T/C,"dose: 5.0 mg/kg/injection, schedule: Q01DX015 (ip), vehicle: carboxymethylcellulose (CMC)",132 and 136 % of control
same,T/C,"dose: 5.0 mg/kg/injection, schedule: Q01DX015 (ip), vehicle: saline, evaluated on day 46",133 % of control
same,T/C,"dose: 5.0 mg/kg/injection, schedule: Q01DX015 (ip), vehicle: saline, run until all animals had died",148 % of control
same,T/C,"dose: 5.0 mg/kg/injection, schedule: Q## X003 (ip), vehicle: saline",133 % of control
same,T/C,"dose: 6.0 mg/kg/injection, schedule: Q01DX001 (ip), vehicle: saline",125 % of control
same,T/C,"dose: 6.0 mg/kg/injection, schedule: Q01DX009 (sc), vehicle: saline",131 % of control
same,T/C,"dose: 6.0 mg/kg/injection, schedule: Q## X003 (ip), vehicle: saline",136 % of control
same,T/C,"dose: 6.0 mg/kg/injection, schedule: Q## X040 (ip), vehicle: saline",134 and 143 % of control
same,T/C,"dose: 6.5 mg/kg/injection, schedule: Q01DX015 (ip), vehicle: saline, evaluated on day 46",133 and 137 % of control
same,T/C,"dose: 6.5 mg/kg/injection, schedule: Q01DX015 (ip), vehicle: saline, run until all animals had died",140 % of control
same,T/C,"dose: 7.5 mg/kg/injection, schedule: Q01DX009 (oral), vehicle: saline",127 % of control
same,T/C,"dose: 7.5 mg/kg/injection, schedule: Q## X003 (ip), vehicle: saline",141 % of control
same,T/C,"dose: 8.0 mg/kg/injection, schedule: Q01DX009 (ip), vehicle: Klucel (hydroxypropylcellulose) (HPC)",138 % of control [9 of 10 alive]
same,T/C,"dose: 8.0 mg/kg/injection, schedule: Q01DX009 (sc), vehicle: saline",135 % of control
same,T/C,"dose: 8.0 mg/kg/injection, schedule: Q01DX015 (ip), vehicle: saline",133 % of control
same,T/C,"dose: 8.0 mg/kg/injection, schedule: Q02DX008 (ip), vehicle: saline",137 % of control
same,T/C,"dose: 8.0 mg/kg/injection, schedule: Q## X040 (ip), vehicle: saline",145 % of control
same,T/C,"dose: 10.0 mg/kg/injection, schedule: Q01DX009 (oral), vehicle: saline",134 % of control
same,T/C,"dose: 10.0 mg/kg/injection, schedule: Q01DX Z (ip), vehicle: carboxymethylcellulose (CMC)",137 % of control
same,T/C,"dose: 10.0 mg/kg/injection, schedule: Q## X003 (ip), vehicle: saline",149 % of control
same,T/C,"dose: 10.0 mg/kg/injection, schedule: Q## X004 (ip), vehicle: saline",135 % of control
same,T/C,"dose: 11.0 mg/kg/injection, schedule: Q01DX001 (ip), vehicle: carboxymethylcellulose (CMC)",126 % of control
same,T/C,"dose: 12.0 mg/kg/injection, schedule: Q01DX001 (ip), vehicle: saline",129 % of control
same,T/C,"dose: 12.0 mg/kg/injection, schedule: Q01DX009 (oral), vehicle: saline",147 % of control
same,T/C,"dose: 12.0 mg/kg/injection, schedule: Q01DX009 (sc), vehicle: saline",142 % of control
same,T/C,"dose: 12.0 mg/kg/injection, schedule: Q## X008 (ip), vehicle: saline",129 % of control
same,T/C,"dose: 12.0 mg/kg/injection, schedule: Q## X040 (ip), vehicle: saline",148 % of control
same,T/C,"dose: 13.0 mg/kg/injection, schedule: Q01DX001 (ip), vehicle: carboxymethylcellulose (CMC)",139 % of control
same,T/C,"dose: 15.0 mg/kg/injection, schedule: Q01DX001 (ip), vehicle: saline, evaluated on day 30",131 % of control
same,T/C,"dose: 15.0 mg/kg/injection, schedule: Q01DX001 (ip), vehicle: saline, evaluated on day 46",125 % of control
same,T/C,"dose: 15.0 mg/kg/injection, schedule: Q01DX009 (oral), vehicle: saline",144 % of control
same,T/C,"dose: 16.0 mg/kg/injection, schedule: Q01DX009 (ip), vehicle: Klucel (hydroxypropylcellulose) (HPC)",128 % of control
same,T/C,"dose: 16.0 mg/kg/injection, schedule: Q## X008 (ip), vehicle: saline",127 % of control
same,T/C,"dose: 16.0 mg/kg/injection, schedule: Q## X024 (ip), vehicle: saline",131 % of control
same,T/C,"dose: 16.0 mg/kg/injection, schedule: Q## X032 (ip), vehicle: saline",126 and 136 % of control
